PubChem BioAssay AID493246 – Drosophila RNAi Screening Center, 2011

Test: 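Genome-wide search for dsRNAs that reduce cell number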 (primary screen)
Cells: Drosophila Kc and S2R+ cells
Reagents: long dsRNA against Drosophila genes
Measurement: 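Cell number per well after knock-down, printed as raw plate values; calls were based on per-plate z-scores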
Reading the numbers: Kc cell number and S2R+ cell number: higher = more cells remaining
Active means: 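Active when the per-plate z-score of cell number is 3 or more in the direction of fewer cells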
The deposit covers about 21,000 reagents; below is a random part of those that have a named target and a result. Of all reagents, 429 (2%) got an active call. 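Values are raw and not normalised between plates; calls rest on per-plate z-scores that were not deposited.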 The numbers tell different reagents against one gene apart. The record does not give: the amount of reagent, the time to read-out.

How did the screen score e(y)2b?
Kc cell number, rep 1: 1.32e6; Kc cell number, rep 2: 1.34e6; S2R+ cell number, rep 1: 1.31e6; S2R+ cell number, rep 2: 1.38e6; call: inactive

What did the screen give for CG10602?
Kc cell number, rep 1: 1.27e6; Kc cell number, rep 2: 1.32e6; S2R+ cell number, rep 1: 1.29e6; S2R+ cell number, rep 2: 1.30e6; call: inactive

What did the screen give for CG15155?
Kc cell number, rep 1: 1.64e6; Kc cell number, rep 2: 1.61e6; S2R+ cell number, rep 1: 1.37e6; S2R+ cell number, rep 2: 1.54e6; call: inactive

For sut2, what does the deposit list?
Kc cell number, rep 1: 1.35e6; Kc cell number, rep 2: 1.48e6; S2R+ cell number, rep 1: 1.06e6; S2R+ cell number, rep 2: 1.16e6; call: inactive

What is on record for vkg?
Kc cell number, rep 1: 1.61e6; Kc cell number, rep 2: 1.49e6; S2R+ cell number, rep 1: 1.09e6; S2R+ cell number, rep 2: 1.28e6; call: inactive

What did the screen give for CG14402?
Kc cell number, rep 1: 1.51e6; Kc cell number, rep 2: 1.63e6; S2R+ cell number, rep 1: 1.26e6; S2R+ cell number, rep 2: 3.81e5; call: inactive

For Snap25 #1, what does the deposit list?
Kc cell number, rep 1: 1.70e6; Kc cell number, rep 2: 1.65e6; S2R+ cell number, rep 1: 1.12e6; S2R+ cell number, rep 2: 1.22e6; call: inactive

For Snap25 #2, how do the results read?
Kc cell number, rep 1: 1.53e6; Kc cell number, rep 2: 1.65e6; S2R+ cell number, rep 1: 1.02e6; S2R+ cell number, rep 2: 1.18e6; call: inactive

What did the screen give for Eig71Ec?
Kc cell number, rep 1: 1.25e6; Kc cell number, rep 2: 1.51e6; S2R+ cell number, rep 1: 1.30e6; S2R+ cell number, rep 2: 1.41e6; call: inactive

For yuri #1, what does the deposit list?
Kc cell number, rep 1: 1.53e6; Kc cell number, rep 2: 1.59e6; S2R+ cell number, rep 1: 8.90e5; S2R+ cell number, rep 2: 1.07e6; call: inactive

How did the screen score yuri #2?
Kc cell number, rep 1: 1.50e6; Kc cell number, rep 2: 1.65e6; S2R+ cell number, rep 1: 8.82e5; S2R+ cell number, rep 2: 1.09e6; call: inactive

For yuri #3, what does the deposit list?
Kc cell number, rep 1: 1.45e6; Kc cell number, rep 2: 1.52e6; S2R+ cell number, rep 1: 1.20e6; S2R+ cell number, rep 2: 1.30e6; call: inactive

Which result is listed for yuri #4?
Kc cell number, rep 1: 1.30e6; Kc cell number, rep 2: 1.43e6; S2R+ cell number, rep 1: 1.26e6; S2R+ cell number, rep 2: 1.28e6; call: inactive

Quoted from the entries so far (3 entries):
CG10602: Kc cell number, rep 1 = 1.27e6; Kc cell number, rep 2 = 1.32e6; S2R+ cell number, rep 1 = 1.29e6; S2R+ cell number, rep 2 = 1.30e6; call = inactive
CG15155: Kc cell number, rep 1 = 1.64e6; Kc cell number, rep 2 = 1.61e6; S2R+ cell number, rep 1 = 1.37e6; S2R+ cell number, rep 2 = 1.54e6; call = inactive
sut2: Kc cell number, rep 1 = 1.35e6; Kc cell number, rep 2 = 1.48e6; S2R+ cell number, rep 1 = 1.06e6; S2R+ cell number, rep 2 = 1.16e6; call = inactive

The list goes on:
What did the screen give for CG15873?
Kc cell number, rep 1: 1.44e6; Kc cell number, rep 2: 1.54e6; S2R+ cell number, rep 1: 1.23e6; S2R+ cell number, rep 2: 1.33e6; call: inactive

What did the screen give for AANATL5?
Kc cell number, rep 1: 1.66e6; Kc cell number, rep 2: 1.63e6; S2R+ cell number, rep 1: 1.12e6; S2R+ cell number, rep 2: 1.19e6; call: inactive

For CG10237, how do the results read?
Kc cell number, rep 1: 1.47e6; Kc cell number, rep 2: 1.59e6; S2R+ cell number, rep 1: 1.19e6; S2R+ cell number, rep 2: 1.29e6; call: inactive

With DnaJ-1, what was measured?
Kc cell number, rep 1: 1.18e6; Kc cell number, rep 2: 1.33e6; S2R+ cell number, rep 1: 1.09e6; S2R+ cell number, rep 2: 8.92e5; call: inactive

What is on record for Jarid2?
Kc cell number, rep 1: 1.29e6; Kc cell number, rep 2: 1.37e6; S2R+ cell number, rep 1: 1.21e6; S2R+ cell number, rep 2: 1.18e6; call: inactive

Which result is listed for CG5062?
Kc cell number, rep 1: 1.55e6; Kc cell number, rep 2: 1.58e6; S2R+ cell number, rep 1: 1.16e6; S2R+ cell number, rep 2: 1.23e6; call: inactive

With ng3, what does the deposit list?
Kc cell number, rep 1: 1.63e6; Kc cell number, rep 2: 1.57e6; S2R+ cell number, rep 1: 1.08e6; S2R+ cell number, rep 2: 1.22e6; call: inactive

Which result is listed for CG14562?
Kc cell number, rep 1: 1.32e6; Kc cell number, rep 2: 1.42e6; S2R+ cell number, rep 1: 1.27e6; S2R+ cell number, rep 2: 1.35e6; call: inactive
